# For at least one compound, name, drawing or mass did not settle the structure.
# Target: NMDAR (Mus musculus, UniProt P35438)
# Experiment: Whole-cell voltage-clamp recordings of evoked NMDAR-EPSCs in CA1 pyramidal cells of acute hippocampal slices
# Assay type: cell-based
# Conditions: extracellular application of 20 μM nimodipine
smiles,measurement,value
COCCOC(=O)C1=C(C)NC(C)=C(C(=O)OC(C)C)C1c1cccc([N+](=O)[O-])c1 (stereo not shown) [nimodipine],effect on GINI (1 mM glycine) compared to control,attenuated GINI

# — US20250295653A1, “Use Of Glycine Transporter- 1 Antagonists As Vascular Dementia And/Or Stroke Prophylactic/Treatment Agents” (Recherches Neuro-Hippocampe Inc., priority 2022, published 2025)
